Laboratory results: patent publication US10813933B2, “Therapeutic agent for lung cancer that has acquired EGFR-TKI resistance” (JAPANESE FOUNDATION FOR CANCER RESEARCH, priority 2016, dated 2020)
For at least one compound, name, drawing or mass did not settle the structure.

System: EGFR T790M/exon19 deletion mutant expressing PC9 cells
Assay: Balb-c nu/nu mice transplanted with EGFR mutant expressing PC9
Format: in vivo, mouse
Settings: FIG. 13B

COc1cc(N2CCC(N3CCN(C)CC3)CC2)ccc1Nc1ncc(Cl)c(Nc2ccccc2P(C)(C)=O)n1 [brigatinib]
survival (Kaplan-Meier, in words): alive during the observation period
